No constants are given. Whether binding was seen depends on the method and setting. Some results given as binding are weak or reduced against the parent protein; the word gives no strength.
What was measured:
mouse TGF-β1 (mouse) [1] = molecular target: mouse TGF-β1 (mouse) (UniProt P04202); test: NFAT reporter in Jurkat cells carrying the CAR (FIG. 8)
mouse TGF-β1 (mouse) [2] = molecular target: mouse TGF-β1 (mouse) (UniProt P04202); test: NFAT reporter in Jurkat cells carrying the CAR, murine TGF-β1 titrated

By UniProt entry, the sequences of proteins in these tests, tags left out. Residues count along the entry.
UniProt P04202, residues 279-390: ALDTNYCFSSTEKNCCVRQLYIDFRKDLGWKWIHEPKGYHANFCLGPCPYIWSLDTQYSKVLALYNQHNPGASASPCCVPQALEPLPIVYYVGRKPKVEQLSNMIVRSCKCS

B1: TGF-β CAR (created using scFv #2; spacer not stated for the assay) (receptor, not shown: large carriers)
chain: DYKDDDDKQVQLVQSGAEVKKPGSSVKVSCKASGYTFSSNVISWVRQAPGQGLEWMGGVIPIVDIANYAQRFKGRVTITADESTSTTYMELSSLRSEDTAVYYCALPRAFVLDAMDYWGQGTLVTVSSGGGGSGGGGSGGGGSETVLTQSPGTLSLSPGERATLSCRASQSLGSSYLAWYQQKPGQAPRLLIYGASSRAPGIPDRFSGSGSGTDFTLTISRLEPEDFAVYYCQQYADSPITFGQGTRLEIK
- binding (mouse TGF-β1 (mouse) [1]): binds
- binding (mouse TGF-β1 (mouse) [2]): binds
